PubChem BioAssay AID686938 – Drosophila RNAi Screening Center | 2013
The screen tested about 23,000 reagents; below is a random part of those that have a named target and a result. Of all reagents, 75 (0.33%) got an active call. 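Raw plate signals without normalisation; calls rest on plate z-scores that were not deposited; ratio present for only 364 wells.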 Unmarked entries are inactive. Reagents against one gene are numbered here. Reagent sequences are not shown. The record does not give: the dose of the treatment.

- Assay: 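Fly genes required for calcium entry once internal stores are emptied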 (primary screen)
- Cell system: Drosophila S2R+ cells
- Reagents: long dsRNA against Drosophila genes, about 0.25 µg dsRNA per well, roughly 10,000 cells
- Timing: 5 days of knock-down before the calcium assay
- Treatment: thapsigargin (SERCA pump blocker) to empty calcium stores; entry signal taken 4 min after adding it
- Detection: 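Per-well fluo-4 fluorescence in two replicates, unnormalised, measured in resting cells and 4 min after store depletion by the SERCA blocker thapsigargin; ratio of the two present in few wells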
- Scale: calcium entry signal: higher = stronger calcium signal after store depletion; entry to resting ratio: higher = more calcium entry relative to resting level; resting calcium signal: higher = higher resting calcium signal
- Units: calcium entry signal in fluorescence units; resting calcium signal in fluorescence units
- Rule for the call: 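Called when the plate z-score of the entry-to-rest ratio, mean of duplicates, falls below −3; wells with low overall dye signal (Fmax z below −2) or more than five off-targets excluded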
- Meaning of the calls: active = strongly reduced calcium entry; inactive = no strong reduction

With knock-down of CG13947, the record shows calcium entry signal, replicate 1 = 4.33e7; calcium entry signal, replicate 2 = 5.02e7; resting calcium signal, replicate 1 = 1.89e7; resting calcium signal, replicate 2 = 2.03e7.
Knock-down of CG3815 came out at: calcium entry signal, replicate 1 = 3.73e7; calcium entry signal, replicate 2 = 3.62e7; resting calcium signal, replicate 1 = 1.75e7; resting calcium signal, replicate 2 = 1.66e7.
CalpC (Calpain C) gave calcium entry signal, replicate 1 = 3.83e7; calcium entry signal, replicate 2 = 2.30e7; resting calcium signal, replicate 1 = 1.95e7; resting calcium signal, replicate 2 = 1.14e7.
Silencing of NPFR (Neuropeptide F receptor) came out at: calcium entry signal, replicate 1 = 4.35e7; calcium entry signal, replicate 2 = 4.61e7; resting calcium signal, replicate 1 = 2.11e7; resting calcium signal, replicate 2 = 2.13e7.
For BomS2 (Bomanin Short 2), the entry reads calcium entry signal, replicate 1 = 2.32e7; calcium entry signal, replicate 2 = 3.32e7; resting calcium signal, replicate 1 = 1.13e7; resting calcium signal, replicate 2 = 1.40e7.
With knock-down of 128up (upstream of RpIII128) the results were calcium entry signal, replicate 1 = 3.64e7; calcium entry signal, replicate 2 = 3.08e7; resting calcium signal, replicate 1 = 1.57e7; resting calcium signal, replicate 2 = 1.52e7.
Knock-down of CG42238 resulted in: calcium entry signal, replicate 1 = 3.07e7; resting calcium signal, replicate 1 = 1.44e7.
After knock-down of CG4324, the record shows calcium entry signal, replicate 1 = 2.74e7; calcium entry signal, replicate 2 = 3.68e7; resting calcium signal, replicate 1 = 1.56e7; resting calcium signal, replicate 2 = 1.74e7.
wds (will die slowly) showed calcium entry signal, replicate 1 = 2.34e7; calcium entry signal, replicate 2 = 3.17e7; entry to resting ratio 1.8; resting calcium signal, replicate 1 = 1.34e7; resting calcium signal, replicate 2 = 1.62e7.
Against Send1 (Spermathecal endopeptidase 1) the deposit lists calcium entry signal, replicate 1 = 2.98e7; calcium entry signal, replicate 2 = 2.83e7; resting calcium signal, replicate 1 = 1.42e7; resting calcium signal, replicate 2 = 1.25e7.
Against Spase22-23 (Spase 22/23-subunit) the deposit lists calcium entry signal, replicate 1 = 4.35e7; calcium entry signal, replicate 2 = 6.17e7; resting calcium signal, replicate 1 = 2.30e7; resting calcium signal, replicate 2 = 2.71e7.
Knock-down of CG11438 came out at: calcium entry signal, replicate 1 = 3.49e7; calcium entry signal, replicate 2 = 4.92e7; resting calcium signal, replicate 1 = 1.66e7; resting calcium signal, replicate 2 = 1.89e7.
Against RpS18 (Ribosomal protein S18), the entry reads calcium entry signal, replicate 1 = 1.56e7; calcium entry signal, replicate 2 = 1.35e7; resting calcium signal, replicate 1 = 1.17e7; resting calcium signal, replicate 2 = 1.02e7.
After knock-down of mAChR-B (muscarinic Acetylcholine Receptor, B-type) the results were calcium entry signal, replicate 1 = 5.69e7; calcium entry signal, replicate 2 = 4.05e7; resting calcium signal, replicate 1 = 2.74e7; resting calcium signal, replicate 2 = 1.91e7.
With knock-down of GILT2 (Gamma-interferon-inducible lysosomal thiol reductase 2), the record shows calcium entry signal, replicate 1 = 4.77e7; calcium entry signal, replicate 2 = 4.34e7; resting calcium signal, replicate 1 = 2.22e7; resting calcium signal, replicate 2 = 1.81e7.
scrt (scratch) #1 showed calcium entry signal, replicate 1 = 3.73e7; calcium entry signal, replicate 2 = 4.24e7; resting calcium signal, replicate 1 = 2.21e7; resting calcium signal, replicate 2 = 2.23e7.
scrt (scratch) #2 scored calcium entry signal, replicate 1 = 4.50e7; calcium entry signal, replicate 2 = 4.32e7; resting calcium signal, replicate 1 = 2.02e7; resting calcium signal, replicate 2 = 1.86e7.
RpS14a (Ribosomal protein S14a) gave calcium entry signal, replicate 1 = 6.11e6; calcium entry signal, replicate 2 = 7.43e6; resting calcium signal, replicate 1 = 5.20e6; resting calcium signal, replicate 2 = 5.85e6.
With knock-down of CG17929, the screen gave calcium entry signal, replicate 1 = 3.33e7; calcium entry signal, replicate 2 = 5.70e7; resting calcium signal, replicate 1 = 1.72e7; resting calcium signal, replicate 2 = 8.02e7.
SoxN (SoxNeuro) #1 showed calcium entry signal, replicate 1 = 1.64e7; calcium entry signal, replicate 2 = 2.41e7; resting calcium signal, replicate 1 = 1.06e7; resting calcium signal, replicate 2 = 1.17e7.
After knock-down of SoxN (SoxNeuro) #2, the screen gave calcium entry signal, replicate 1 = 3.42e7; calcium entry signal, replicate 2 = 3.12e7; resting calcium signal, replicate 1 = 2.07e7; resting calcium signal, replicate 2 = 1.57e7.

Targets above whose gene name starts with R or r (2):
RpS18 (Ribosomal protein S18) — calcium entry signal, replicate 1 = 1.56e7; calcium entry signal, replicate 2 = 1.35e7; resting calcium signal, replicate 1 = 1.17e7; resting calcium signal, replicate 2 = 1.02e7
RpS14a (Ribosomal protein S14a) — calcium entry signal, replicate 1 = 6.11e6; calcium entry signal, replicate 2 = 7.43e6; resting calcium signal, replicate 1 = 5.20e6; resting calcium signal, replicate 2 = 5.85e6
